PubChem BioAssay AID1508597 | Cure First | 2020
Test: 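Genes whose silencing sensitises or protects ovarian cancer cells against rucaparib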 (primary screen). Cells: human ovarian carcinoma lines grown from tumours: OCI-P5x (papillary serous) and OCI-C5x (clear cell). Reagent: siRNA pool against human genes, 1.25 pmol siRNA per well. Duration: 72 h or 96 h, depending on the cell culture. Conditions: rucaparib 20 µM (about IC30) or vehicle, present until read-out. Rucaparib or vehicle: Rucaparib. Cell line: OCI-P5x (serous). Read-out: 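Luminescent ATP-based viability assay read 72 or 96 h after transfection, depending on culture, given as normalised percent viability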. Reading the numbers: viability, normalised: higher = more viable cells remaining. Hit rule: 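Active when normalised viability falls below 80 percent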. Calls: active = viability under 80%; inactive = viability 80% or more.
Shown is a random part of the about 2,100 reagents, under one of the conditions tested. 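Calls flag viability under 80% in either arm, not effects specific to rucaparib; the reference for percent is not stated.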 A reagent listed more than once was tested more than once; the source does not tell the runs apart. Not stated in the record: the 100% reference.

Gene	technical replicate	viability, normalised (%)	activity call
MED6 (mediator complex subunit 6)	1	65.7	active
MED6 (mediator complex subunit 6)	2	60.3	active
MED6 (mediator complex subunit 6)	3	66.3	active
MORF4L2 (mortality factor 4 like 2)	1	66.4	active
MORF4L2 (mortality factor 4 like 2)	2	65.4	active
MORF4L2 (mortality factor 4 like 2)	3	74.7	active
GLRA2 (glycine receptor alpha 2)	1	41.8	active
GLRA2 (glycine receptor alpha 2)	2	43.6	active
GLRA2 (glycine receptor alpha 2)	3	49.7	active
PRKCD (protein kinase C delta)	1	70	active
PRKCD (protein kinase C delta)	2	56.7	active
PRKCD (protein kinase C delta)	3	54.1	active
SFMBT1 (Scm like with four mbt domains 1)	1	51.2	active
SFMBT1 (Scm like with four mbt domains 1)	2	40	active
SFMBT1 (Scm like with four mbt domains 1)	3	56.8	active
AURKB (aurora kinase B)	1	61.3	active
AURKB (aurora kinase B)	1	103	inactive
AURKB (aurora kinase B)	2	113	inactive
AURKB (aurora kinase B)	2	61.1	active
AURKB (aurora kinase B)	3	102	inactive
AURKB (aurora kinase B)	3	61.6	active
PIK3R4 (phosphoinositide-3-kinase regulatory subunit 4)	1	79	active
PIK3R4 (phosphoinositide-3-kinase regulatory subunit 4)	2	94.1	inactive
PIK3R4 (phosphoinositide-3-kinase regulatory subunit 4)	3	68.9	active
IL10 (interleukin 10)	1	92.3	inactive
IL10 (interleukin 10)	2	63.5	active
IL10 (interleukin 10)	3	67.4	active
TAOK2 (TAO kinase 2)	1	96.8	inactive
TAOK2 (TAO kinase 2)	2	97.3	inactive
TAOK2 (TAO kinase 2)	3	107	inactive
BLM (BLM RecQ like helicase)	1	55	active
BLM (BLM RecQ like helicase)	1	164	inactive
BLM (BLM RecQ like helicase)	2	57	active
BLM (BLM RecQ like helicase)	2	158	inactive
BLM (BLM RecQ like helicase)	3	56.4	active
BLM (BLM RecQ like helicase)	3	155	inactive
RAG1 (recombination activating 1)	1	46.1	active
RAG1 (recombination activating 1)	2	57.3	active
RAG1 (recombination activating 1)	3	58	active
EPHA2 (EPH receptor A2)	1	63.7	active
EPHA2 (EPH receptor A2)	2	68.1	active
EPHA2 (EPH receptor A2)	3	59.8	active
RERE (arginine-glutamic acid dipeptide repeats)	1	46.3	active
RERE (arginine-glutamic acid dipeptide repeats)	2	49.8	active
RERE (arginine-glutamic acid dipeptide repeats)	3	51.1	active
ID4 (inhibitor of DNA binding 4)	1	77	active
ID4 (inhibitor of DNA binding 4)	2	55.3	active
ID4 (inhibitor of DNA binding 4)	3	83.5	inactive
SMARCA4	1	71.9	active
SMARCA4	1	48.5	active
SMARCA4	2	49.9	active
SMARCA4	2	59.9	active
SMARCA4	3	39.6	active
SMARCA4	3	68.7	active
NONO (non-POU domain containing octamer binding)	1	85.5	inactive
NONO (non-POU domain containing octamer binding)	2	95.5	inactive
NONO (non-POU domain containing octamer binding)	3	81.1	inactive
